Data on one molecule can be found in publication PMC11192944.

Sequences of proteins named here, by UniProt entry; tags and fusion partners are left off.
UniProt O00429: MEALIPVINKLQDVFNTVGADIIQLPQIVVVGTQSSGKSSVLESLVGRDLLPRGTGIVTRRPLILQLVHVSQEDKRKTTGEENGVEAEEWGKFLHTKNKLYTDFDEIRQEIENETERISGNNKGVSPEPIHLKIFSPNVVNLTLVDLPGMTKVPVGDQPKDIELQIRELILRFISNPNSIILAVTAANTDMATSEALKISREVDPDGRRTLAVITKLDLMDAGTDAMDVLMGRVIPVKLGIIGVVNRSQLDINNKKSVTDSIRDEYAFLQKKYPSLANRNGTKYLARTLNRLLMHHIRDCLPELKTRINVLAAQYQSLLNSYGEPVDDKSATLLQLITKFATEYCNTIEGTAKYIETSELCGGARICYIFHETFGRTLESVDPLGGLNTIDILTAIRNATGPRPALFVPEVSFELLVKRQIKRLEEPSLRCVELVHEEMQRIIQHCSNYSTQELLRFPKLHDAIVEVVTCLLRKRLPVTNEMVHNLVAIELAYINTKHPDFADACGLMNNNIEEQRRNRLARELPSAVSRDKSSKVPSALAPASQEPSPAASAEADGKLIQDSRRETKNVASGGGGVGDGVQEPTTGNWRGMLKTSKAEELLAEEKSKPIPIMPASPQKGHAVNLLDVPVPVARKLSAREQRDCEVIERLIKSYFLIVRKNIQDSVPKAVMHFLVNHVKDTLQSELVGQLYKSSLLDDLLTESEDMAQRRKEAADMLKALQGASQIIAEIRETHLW

Results are given in words; binding and its absence hold for the method and conditions named. Binding seen in cells or lysates may run through a third protein. Some results given as binding are weak or reduced against the parent protein; the word gives no strength.

The assay addresses DRP1, endogenous in NPC cells (human (endogenous in NPC cells)) (UniProt O00429). Put plainly: co-IP; endogenous proteins in NPC cell lysate, precipitated with anti-PJA1 or anti-DRP1 antibody; IP lysis buffer, antibody overnight at 4 °C, Protein A/G magnetic beads; with or without docetaxel treatment of the cells (PJA1-PGAM5).

B1: PJA1, endogenous in NPC cells (protein, UniProt Q8NG27 1-643)
chain: MGQESSKPVWPNPTGGYQSNTGRRYGRRHAYVSFRPPTSQRERIASQRKTNSEVPMHRSAPSQTTKRSRSPFSTTRRSWDDSESSGTNLNIDNEDYSRYPPREYRASGSRRGMAYGHIDSYGADDSEEEGAGPVERPPVRGKTGKFKDDKLYDPEKGARSLAGPPPHFSSFSRDVREERDKLDPVPAARCSASRADFLPQSSVASQSSSEGKLATKGDSSERERREQNLPARPSRAPVSICGGGENTSKSAEEPVVRPKIRNLASPNCVKPKIFFDTDDDDDMPHSTSRWRDTANDNEGHSDGLARRGRGESSSGYPEPKYPEDKREARSDQVKPEKVPRRRRTMADPDFWTHSDDYYKYCDEDSDSDKEWIAALRRKYRSREQTLSSSGESWETLPGKEEREPPQAKVSASTGTSPGPGASASAGAGAGASAGSNGSNYLEEVREPSLQEEQASLEEGEIPWLQYHENDSSSEGDNDSGHELMQPGVFMLDGNNNLEDDSSVSEDLEVDWSLFDGFADGLGVAEAISYVDPQFLTYMALEERLAQAMETALAHLESLAVDVEVANPPASKESIDALPEILVTEDHGAVGQEMCCPICCSEYVKGEVATELPCHHYFHKPCVSIWLQKSGTCPVCRCMFPPPL
As for B1, the binding entry is given as “binds”.
